Reference: ChEMBL document CHEMBL5308504, “Tm Shift (DSF) assay results for EUbOPEN Chemogenomics Library” (2023)

Sequences of proteins named here, by UniProt entry; tags and fusion partners are left off.
UniProt P22607, whole entry, looked up: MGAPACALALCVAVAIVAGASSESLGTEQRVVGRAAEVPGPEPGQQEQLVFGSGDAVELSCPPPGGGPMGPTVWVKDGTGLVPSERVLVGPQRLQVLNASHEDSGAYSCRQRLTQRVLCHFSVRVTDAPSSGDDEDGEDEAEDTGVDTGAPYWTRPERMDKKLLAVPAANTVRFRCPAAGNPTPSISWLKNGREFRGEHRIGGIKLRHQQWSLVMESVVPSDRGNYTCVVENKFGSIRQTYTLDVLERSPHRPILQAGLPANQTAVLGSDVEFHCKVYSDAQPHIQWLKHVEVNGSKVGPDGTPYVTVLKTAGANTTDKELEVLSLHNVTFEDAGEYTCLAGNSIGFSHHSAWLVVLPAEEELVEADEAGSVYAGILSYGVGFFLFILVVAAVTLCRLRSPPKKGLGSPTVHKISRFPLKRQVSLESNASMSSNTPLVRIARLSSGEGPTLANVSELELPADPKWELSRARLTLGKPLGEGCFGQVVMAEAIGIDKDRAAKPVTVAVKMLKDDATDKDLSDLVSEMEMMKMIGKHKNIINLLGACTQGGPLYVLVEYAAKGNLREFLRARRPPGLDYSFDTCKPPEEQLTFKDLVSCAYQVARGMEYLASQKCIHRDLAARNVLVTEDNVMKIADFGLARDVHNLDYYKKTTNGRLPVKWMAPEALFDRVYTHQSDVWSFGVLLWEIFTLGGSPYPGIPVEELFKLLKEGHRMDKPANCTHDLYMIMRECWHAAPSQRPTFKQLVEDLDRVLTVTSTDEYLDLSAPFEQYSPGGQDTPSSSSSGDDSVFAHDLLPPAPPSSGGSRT

Key:
Peregrin (Homo sapiens) = biological target: T1, Peregrin (Homo sapiens) (UniProt P55201); conditions: Compound concentration 20.0 uM, Protein concentration 2.0 uM, Result type QC Liability
T1 sequence (whole entry): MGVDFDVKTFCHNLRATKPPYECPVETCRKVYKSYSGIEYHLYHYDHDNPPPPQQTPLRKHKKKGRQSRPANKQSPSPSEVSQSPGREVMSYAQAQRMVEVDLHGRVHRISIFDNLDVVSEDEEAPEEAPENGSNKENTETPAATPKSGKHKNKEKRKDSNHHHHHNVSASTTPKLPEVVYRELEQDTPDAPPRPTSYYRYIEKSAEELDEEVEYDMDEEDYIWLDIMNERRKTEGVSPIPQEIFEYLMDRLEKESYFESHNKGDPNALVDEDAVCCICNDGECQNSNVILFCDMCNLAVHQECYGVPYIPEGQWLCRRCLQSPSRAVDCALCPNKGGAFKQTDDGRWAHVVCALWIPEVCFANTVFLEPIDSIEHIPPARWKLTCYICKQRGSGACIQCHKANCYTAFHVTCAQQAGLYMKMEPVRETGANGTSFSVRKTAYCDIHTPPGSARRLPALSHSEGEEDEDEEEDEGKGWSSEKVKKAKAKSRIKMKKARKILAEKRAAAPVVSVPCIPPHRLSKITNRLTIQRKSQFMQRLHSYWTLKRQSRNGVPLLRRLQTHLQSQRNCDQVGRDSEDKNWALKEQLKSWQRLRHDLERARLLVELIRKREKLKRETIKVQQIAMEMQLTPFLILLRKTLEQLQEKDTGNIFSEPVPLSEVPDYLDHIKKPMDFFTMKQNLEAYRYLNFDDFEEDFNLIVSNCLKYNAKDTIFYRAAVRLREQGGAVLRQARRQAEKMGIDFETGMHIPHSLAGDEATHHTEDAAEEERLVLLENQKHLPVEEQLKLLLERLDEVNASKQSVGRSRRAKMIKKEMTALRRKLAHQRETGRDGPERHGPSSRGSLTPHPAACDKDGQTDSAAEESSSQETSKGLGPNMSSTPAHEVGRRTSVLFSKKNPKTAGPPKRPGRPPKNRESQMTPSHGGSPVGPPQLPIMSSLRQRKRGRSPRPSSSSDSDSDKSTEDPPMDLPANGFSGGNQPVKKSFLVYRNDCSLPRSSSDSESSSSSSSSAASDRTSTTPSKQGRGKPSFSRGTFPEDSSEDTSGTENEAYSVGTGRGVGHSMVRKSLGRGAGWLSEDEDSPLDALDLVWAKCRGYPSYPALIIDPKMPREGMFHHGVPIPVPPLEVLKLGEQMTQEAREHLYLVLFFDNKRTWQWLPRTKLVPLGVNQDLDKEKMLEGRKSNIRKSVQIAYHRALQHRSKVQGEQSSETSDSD

[1] = biological target: Fibroblast growth factor receptor 3 (Homo sapiens) (UniProt P22607); conditions: Compound concentration 20.0 uM, Protein concentration 2.0 uM, Result type QC Liability

`C[C@@H]1C[C@H](N)C[C@H](c2ccncc2NC(=O)c2ccc(F)c(-c3c(F)cccc3F)n2)C1` gave a ΔTm (Peregrin (Homo sapiens)) of -1.85 °C and a ΔTm [1] of 0.95 °C.
